Structures are written as SMILES. The list shows a part of the results. Many values rest on one well or one pass, so single values are uncertain.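 Imaging used 1,536-well plates; nuclei positive for cleaved PARP by antibody were divided by total DNA-stained nuclei to yield the apoptosis fraction. Doses for screening kept most cells viable, and cell lines differ markedly in resting and induced cleaved-PARP levels.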

The test has as its system RVH-421. In words: cleaved PARP positive nuclei fraction relative to DMSO control; melanoma cells; higher = more apoptosis. Particulars: library dose: low library concentration; 72 h.
On to `CCCS(=O)(=O)Nc1ccc(F)c(C(=O)c2c[nH]c3ncc(Cl)cc23)c1F` + N#Cc1c(O)c2c(-c3ccc(-c4ccccc4O)cc3)csc2[nH]c1=O [A769662] (first compound 0.08 µM, partner dose 2 µM), for which the “cleaved PARP positive nuclei fraction” value came out at 225%.
As for `CN1CCN(c2ccc3nc(-c4c(N)c5c(F)cccc5[nH]c4=O)[nH]c3c2)CC1` [Dovitinib] + Cc1cc(N2CCOCC2)cc2[nH]c(-c3c(NC[C@@H](O)c4cccc(Cl)c4)cc[nH]c3=O)nc12 [BMS536924] (first compound 0.1 µM, partner dose 0.2 µM), the figure is 47.6%.
To `C[C@@H](Oc1cc(-c2cnn(C3CCNCC3)c2)cnc1N)c1c(Cl)ccc(F)c1Cl` [Crizotinib] + COc1ccc(-c2ccc3c(N4CCOCC4)nc(N4C[C@@H](C)O[C@@H](C)C4)nc3n2)cc1CO [KU0063794] (first compound 0.2 µM, partner dose 0.02 µM) belongs 162%; to `O=C(O)[C@@H]1[O][Sb](=[O])([O][Sb]2(=[O])[O][C@H]([C@H](O)CO)[C@H](O)[C@H](C(=O)O)[O]2)[O][C@H]([C@H](O)CO)[C@@H]1O` (stereo not given in full) [stibogluconate] + O=C(O)c1ccc(-c2c[nH]c3ncc(-c4ccccc4)cc23)cc1C1CCCC1 [GSK650394] (first compound 2 µM, partner dose 0.16 µM), 81.2%.
To `Cn1c(=O)n(-c2ccc(C(C)(C)C#N)cc2)c2c3cc(-c4cnc5ccccc5c4)ccc3ncc21` + CCCCCCCCCCCC1=C(O)C(=O)C=C(O)C1=O [Embelin] (first compound 0.004 µM, partner dose 1.2 µM) belongs 85.9%.
